Assay [1] addresses WWC1 (co-immunoprecipitation with USP9X, Fig. S3A) (UniProt Q8IX03). Description: co-IP; co-immunoprecipitation of USP9X and WWC1 (Fig. S3A); set-up not shown.
Assay [2] has as its target endogenous WWC1 of mouse cortex (mouse (endogenous in cortex)) (UniProt Q5SXA9). As to the kind of experiment: co-IP; mouse cortex homogenates (wild-type, P21) in RIPA buffer; primary antibody 1 h at 4 °C, protein A/G agarose 2 h; IgG as control; immunoblotting. On the technique in general: In western blotting, separated proteins are transferred to a membrane and probed.

The chains behind the UniProt entries cited, without tags or fusion partners.
UniProt Q5SXA9: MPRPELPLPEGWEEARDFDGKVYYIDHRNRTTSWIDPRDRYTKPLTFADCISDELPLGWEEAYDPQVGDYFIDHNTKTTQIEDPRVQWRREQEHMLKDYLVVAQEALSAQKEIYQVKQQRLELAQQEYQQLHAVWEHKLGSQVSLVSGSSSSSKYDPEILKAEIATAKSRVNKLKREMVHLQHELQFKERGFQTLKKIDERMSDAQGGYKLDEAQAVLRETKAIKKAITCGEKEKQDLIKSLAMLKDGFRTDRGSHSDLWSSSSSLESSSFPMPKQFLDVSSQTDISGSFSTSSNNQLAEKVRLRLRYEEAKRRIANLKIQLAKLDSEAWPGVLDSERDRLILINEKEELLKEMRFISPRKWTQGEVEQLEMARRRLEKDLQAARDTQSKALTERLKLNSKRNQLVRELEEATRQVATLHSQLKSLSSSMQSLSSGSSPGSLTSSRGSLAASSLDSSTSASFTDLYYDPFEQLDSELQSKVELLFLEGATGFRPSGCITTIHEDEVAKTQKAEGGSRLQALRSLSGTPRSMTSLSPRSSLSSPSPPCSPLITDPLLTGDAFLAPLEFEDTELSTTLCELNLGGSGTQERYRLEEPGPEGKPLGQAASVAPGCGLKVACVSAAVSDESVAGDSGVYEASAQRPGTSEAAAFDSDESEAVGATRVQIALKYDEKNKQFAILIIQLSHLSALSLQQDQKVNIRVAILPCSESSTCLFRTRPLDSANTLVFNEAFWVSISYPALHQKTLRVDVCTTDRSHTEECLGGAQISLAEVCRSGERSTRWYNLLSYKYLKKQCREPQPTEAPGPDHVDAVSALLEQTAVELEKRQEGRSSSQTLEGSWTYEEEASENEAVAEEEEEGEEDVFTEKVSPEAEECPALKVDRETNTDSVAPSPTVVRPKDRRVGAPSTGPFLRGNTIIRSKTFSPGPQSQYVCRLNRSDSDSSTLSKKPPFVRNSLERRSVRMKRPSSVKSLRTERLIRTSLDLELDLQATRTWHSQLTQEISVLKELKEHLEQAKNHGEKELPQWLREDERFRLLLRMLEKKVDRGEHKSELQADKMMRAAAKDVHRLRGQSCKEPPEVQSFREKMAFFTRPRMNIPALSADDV

These are yes or no findings as the source states them, for the method shown. In cells and extracts the contact can be indirect. Some entries that bind do so weakly or less than the wild type.

In the case of “USP9X (from UniProt Q93008 1-2554) (enzyme)”, the binding result in assay [1] is on record as “binds”.

B1: endogenous AMOT (AMOTp130) of mouse cortex (protein, UniProt Q8VHG2 1-1126)
chain: MRSSDDQPSGGTTVLQRLLQEQLRYGNPSENRSLLAIHQQATGNSSPFSTGSGNQGPQNDVLSSQDHHQQQLVAHPARQEPQGQEIQSENGVMEKQLSPRMQNNEELPTYEEAKVQSQYFRGQQHASVGAAFYVTGVTNQKMRTEGRPSVQRLTPGKMHQDEGLRDLKQGHVRSLSERLMQMSLATSGVKAHPPVTSAPLSPPQPNDLYKNATSSSEFYKAQGPPPSQHSLKGMEHRGPPPEYPFKGVPSQSVVCKSQEPGHFYSEHRLNQPGRTEGQLMRYQHPPEYGAARATQDISSLSLSARNSQPHSPTSSLTAGASSLPLLQSPPSTRLPPGQHLVSNQGDHSAHLSRHQQHLLSSQSHQGDHYRHAQASLTSAQQQPGEAYSAMPRAQQSASYQPMPADPFAMVSRAQQMVEILSDENRNLRQELDGCYEKVARLQKVETEIQRVSEAYENLVKSSSKREALEKAMRNKLEGEIRRMHDFNRDLRDRLETANKQLAEKEYEGSEDTRKTISQLFAKHKENQREKEKLEAELATARSTNEDQRRHIEIRDQALSNAQAKVVKLEEELKKKQVYVDKVEKMQQALVQLQAACEKREQLEHRLRTRLERELESLRIQQRQGNSQPTNASEYNAAALMELLREKEERILALEADMTKWEQKYLEENVMRHFALDAAATVAAQRDTTVISHSPNTSYDTALEARIQKEEEEILMANKRCLDMEGRIKTLHAQIIEKDAMIKVLQQRSRKEPSKTEQLSSMRPAKSLMSISNAGSGLLAHSSTLTGAPIMEEKRDDKSWKGSLGVLLGGDYRVEPVPSTPSPVPPSTPLLSAHSKTGSRDCSTQTERGPESTKTAAVTPISAPMAGPVAAAAPAAAINATAATNTATAATNTTIMVAAAPVAVAAVAAPAAAAATPSPANAAALAAAAAPATSVSAATSVSAANSISPAAPVAPAAVVPPAAPVSPAAAVQIPAAASLTPATVSPTAATATAAVAAATTAAITAAAAAATTAIQVAPATSAPVPSPASIPAPATAQASAPTPTQASTPAPTEPPSPVPTPTPALVQTEGPANPGASSGPRRLSTPNLMCNPDKPDAPAFHSSTLERKTPIQILGQEPDAEMVEYLI
With B1, the binding result in assay [2] was “binds”.

These data come from paper PMC10394084.
